The list shows a part of the results.
Experiments:
Experiment in all cases: glycan array binding signal (z-score within array); higher = stronger binding
Details in all cases: glycan notation: IUPAC condensed, linker removed
[1] = molecular target: Man(a1-2)Man(a1-3)[Man(a1-2)Man(a1-6)]Man
How it was run: (§1)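 The Consortium for Functional Glycomics database supplied 3228 glycan arrays, of which those lacking an available protein sequence were dropped. The binding signal, a within-array Z-score, was averaged across arrays of the same protein sequence and across linkers. Negative scores can be read as non-binding.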

[2] = molecular target: Man(a1-2)Man(a1-3)[Man(a1-2)Man(a1-6)]Man(a1-6)[Man(a1-2)Man(a1-2)Man(a1-3)]Man
How it was run: as §1

[3] = molecular target: Man(a1-2)Man(a1-3)[Man(a1-2)Man(a1-6)]Man(a1-6)[Man(a1-2)Man(a1-2)Man(a1-3)]Man(b1-4)GlcNAc(b1-4)GlcNAc
How it was run: as §1

[4] = molecular target: Man(a1-2)Man(a1-3)[Man(a1-6)]Man(a1-6)[Man(a1-2)Man(a1-3)]Man(b1-4)GlcNAc(b1-4)GlcNAc
How it was run: as §1

[5] = molecular target: Man(a1-2)Man(a1-6)[Man(a1-3)]Man(a1-6)[Man(a1-2)Man(a1-2)Man(a1-3)]Man
How it was run: as §1

[6] = molecular target: Man(a1-2)Man(a1-6)[Man(a1-3)]Man(a1-6)[Man(a1-2)Man(a1-2)Man(a1-3)]Man(b1-4)GlcNAc(b1-4)GlcNAc
How it was run: as §1

Man(a1-3)[Man(a1-6)]Man = molecular target: Man(a1-3)[Man(a1-6)]Man
How it was run: as §1

[7] = molecular target: Man(a1-3)[Man(a1-6)]Man(a1-6)[Man(a1-2)Man(a1-3)]Man(b1-4)GlcNAc(b1-4)GlcNAc
How it was run: as §1

[8] = molecular target: Man(a1-3)[Man(a1-6)]Man(a1-6)[Man(a1-3)]Man
How it was run: as §1

[9] = molecular target: Man(a1-3)[Man(a1-6)]Man(a1-6)[Man(a1-3)]Man(b1-4)GlcNAc(b1-4)GlcNAc
How it was run: as §1

[10] = molecular target: Man(a1-3)[Man(a1-6)]Man(b1-4)GlcNAc(b1-4)GlcNAc
How it was run: as §1

[11] = molecular target: Man(a1-3)[Man(a1-6)]Man(b1-4)GlcNAc(b1-4)[Fuc(a1-6)]GlcNAc
How it was run: as §1

Man(a1-6)Man = molecular target: Man(a1-6)Man
How it was run: as §1

Man(b1-4)GlcNAc = molecular target: Man(b1-4)GlcNAc
How it was run: as §1

MurNAc(b1-4)GlcNAc = molecular target: MurNAc(b1-4)GlcNAc
How it was run: as §1

Neu5Ac(a2-3)Gal = molecular target: Neu5Ac(a2-3)Gal
How it was run: as §1

[12] = molecular target: Neu5Ac(a2-3)Gal(b1-3)GalNAc
How it was run: as §1

[13] = molecular target: Neu5Ac(a2-3)Gal(b1-3)GalNAc(b1-3)Gal(a1-4)Gal(b1-4)Glc
How it was run: as §1

[14] = molecular target: Neu5Ac(a2-3)Gal(b1-3)GalNAc(b1-4)[Neu5Ac(a2-3)]Gal(b1-4)Glc
How it was run: as §1

[15] = molecular target: Neu5Ac(a2-3)Gal(b1-3)GalNAc(b1-4)[Neu5Ac(a2-8)Neu5Ac(a2-3)]Gal(b1-4)Glc
How it was run: as §1

[16] = molecular target: Neu5Ac(a2-3)Gal(b1-3)GalNAc6S
How it was run: as §1

[17] = molecular target: Neu5Ac(a2-3)Gal(b1-3)GlcNAc
How it was run: as §1

[18] = molecular target: Neu5Ac(a2-3)Gal(b1-3)GlcNAc(b1-2)Man
How it was run: as §1

[19] = molecular target: Neu5Ac(a2-3)Gal(b1-3)GlcNAc(b1-2)Man(a1-3)[GlcNAc(b1-4)][Neu5Ac(a2-3)Gal(b1-3)GlcNAc(b1-2)Man(a1-6)]Man(b1-4)GlcNAc(b1-4)GlcNAc
How it was run: as §1

[20] = molecular target: Neu5Ac(a2-3)Gal(b1-3)GlcNAc(b1-2)Man(a1-3)[Neu5Ac(a2-3)Gal(b1-3)GlcNAc(b1-2)Man(a1-6)]Man(b1-4)GlcNAc(b1-4)GlcNAc
How it was run: as §1

[21] = molecular target: Neu5Ac(a2-3)Gal(b1-3)GlcNAc(b1-3)Gal(b1-3)GlcNAc
How it was run: as §1

[22] = molecular target: Neu5Ac(a2-3)Gal(b1-3)GlcNAc(b1-3)Gal(b1-4)GlcNAc
How it was run: as §1

[23] = molecular target: Neu5Ac(a2-3)Gal(b1-3)GlcNAc(b1-3)GalNAc
How it was run: as §1

[24] = molecular target: Neu5Ac(a2-3)Gal(b1-3)GlcNAc(b1-4)Gal(b1-4)Glc
How it was run: as §1

[25] = molecular target: Neu5Ac(a2-3)Gal(b1-3)GlcNAc(b1-6)GalNAc
How it was run: as §1

[26] = molecular target: Neu5Ac(a2-3)Gal(b1-3)GlcNAc6S
How it was run: as §1

[27] = molecular target: Neu5Ac(a2-3)Gal(b1-3)[Fuc(a1-4)]GlcNAc
How it was run: as §1

[28] = molecular target: Neu5Ac(a2-3)Gal(b1-3)[Fuc(a1-4)]GlcNAc(b1-3)Gal(b1-3)[Fuc(a1-4)]GlcNAc
How it was run: as §1

[29] = molecular target: Neu5Ac(a2-3)Gal(b1-3)[Fuc(a1-4)]GlcNAc(b1-3)Gal(b1-4)[Fuc(a1-3)]GlcNAc
How it was run: as §1

[30] = molecular target: Neu5Ac(a2-3)Gal(b1-3)[GlcNAc(b1-6)]GalNAc
How it was run: as §1

[31] = molecular target: Neu5Ac(a2-3)Gal(b1-3)[Neu5Ac(a2-6)]GalNAc
How it was run: as §1

[32] = molecular target: Neu5Ac(a2-3)Gal(b1-3)[Neu5Ac(a2-6)]GlcNAc(b1-3)[Fuc(a1-3)[Gal(b1-4)]GlcNAc(b1-6)]Gal(b1-4)Glc
How it was run: as §1

[33] = molecular target: Neu5Ac(a2-3)Gal(b1-3)]Neu5Ac(a2-3)Gal(b1-4)]GlcNAc
How it was run: as §1

B1: DCIR1 (Mus musculus), Q9QZ15 (protein)
chain: MASEITYAEVKFKNESNSLHTYSESPAAPREKPIRDLRKPGSPSLLLTSLMLLLLLLAITFLVAFIIYFQKYSQLLEEKKAAKNIMHNELNCTKSVSPMEDKVWSCCPKDWRLFGSHCYLVPTVSSSASWNKSEENCSRMGAHLVVIQSQEEQDFITGILDTHAAYFIGLWDTGHRQWQWVDQTPYEESITFWHNGEPSSGNEKCATIIYRWKTGWGWNDISCSLKQKSVCQMKKINL
B1 was tested, and the “glycan array binding signal (z-score)” value [1] was -0.875, the “glycan array binding signal (z-score)” value [2] was -0.716 and the “glycan array binding signal (z-score)” value [3] was -0.197. For the same binder, the “glycan array binding signal (z-score)” value [4] was -0.907, the “glycan array binding signal (z-score)” value [5] was -1.02 and the “glycan array binding signal (z-score)” value [6] was 1.5. The “glycan array binding signal (z-score)” value (Man(a1-3)[Man(a1-6)]Man) was -0.497, the “glycan array binding signal (z-score)” value [7] was -0.363 and the “glycan array binding signal (z-score)” value [8] was 0.267. For the same binder, the “glycan array binding signal (z-score)” value [9] was -0.185, the “glycan array binding signal (z-score)” value [10] was -0.644 and the “glycan array binding signal (z-score)” value [11] was -0.657. For the same binder, the “glycan array binding signal (z-score)” value (Man(a1-6)Man) was 2.57, the “glycan array binding signal (z-score)” value (Man(b1-4)GlcNAc) was 2.02 and the “glycan array binding signal (z-score)” value (MurNAc(b1-4)GlcNAc) was -0.939. For the same binder, the “glycan array binding signal (z-score)” value (Neu5Ac(a2-3)Gal) was -0.397, the “glycan array binding signal (z-score)” value [12] was 0.347 and the “glycan array binding signal (z-score)” value [13] was -0.681. The “glycan array binding signal (z-score)” value [14] was -0.868, the “glycan array binding signal (z-score)” value [15] was -0.763 and the “glycan array binding signal (z-score)” value [16] was 1.01. The “glycan array binding signal (z-score)” value [17] was -0.908, the “glycan array binding signal (z-score)” value [18] was 0.337 and the “glycan array binding signal (z-score)” value [19] was -0.777. For the same binder, the “glycan array binding signal (z-score)” value [20] was 2.25, the “glycan array binding signal (z-score)” value [21] was -0.604 and the “glycan array binding signal (z-score)” value [22] was -0.861. For the same binder, the “glycan array binding signal (z-score)” value [23] was -0.401, the “glycan array binding signal (z-score)” value [24] was 1 and the “glycan array binding signal (z-score)” value [25] was 0.265. The “glycan array binding signal (z-score)” value [26] was -0.52, the “glycan array binding signal (z-score)” value [27] was 0.368 and the “glycan array binding signal (z-score)” value [28] was -0.952. For the same binder, the “glycan array binding signal (z-score)” value [29] was -0.642, the “glycan array binding signal (z-score)” value [30] was -0.657 and the “glycan array binding signal (z-score)” value [31] was -0.477. The “glycan array binding signal (z-score)” value [32] was -0.766 and the “glycan array binding signal (z-score)” value [33] was -0.026.
